SMILES strings stand for the structures. “Also recorded” adds a separate entry of the source.

From patent publication US4859452A (priority 1987, dated 1989) come the findings set out here.

The test system of data set [1] is methylcholanthrene-induced fibrosarcoma. The following applies: 450 mg of ornithine for every 100 ml of the amino acid formulation.
The conditions of data set [2]: in words; tumor and RBC.

Regarding `NCCC[C@H](N)C(=O)O` [ornithine], in data set [1], the “toxicity of continuous infusion” value is reported as “posed no toxicity problems”. For the same compound, the “comparison of ornithine and arginine for increase in polyamine levels” value in data set [2] is “functioned better than arginine; also recorded: both appeared to promote an increase in tumor-related levels”.
